Test results published in PMC3148254.
Read-outs that look alike come from different tables or passages of the source. These are yes or no findings as the source states them, for the method shown. In cells and extracts the contact can be indirect. Some results given as binding are weak or reduced against the parent protein; the word gives no strength.

By UniProt entry, the sequences of proteins in these tests, tags left out. Residues count along the entry.
UniProt P27512, residues 20-289: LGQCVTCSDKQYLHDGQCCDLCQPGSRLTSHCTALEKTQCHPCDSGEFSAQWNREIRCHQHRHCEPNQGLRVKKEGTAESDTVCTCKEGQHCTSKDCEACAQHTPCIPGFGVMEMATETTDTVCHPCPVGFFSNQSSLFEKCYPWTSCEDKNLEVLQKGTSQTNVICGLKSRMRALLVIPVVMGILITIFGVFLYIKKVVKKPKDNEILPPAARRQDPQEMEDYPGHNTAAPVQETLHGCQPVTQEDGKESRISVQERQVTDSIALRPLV
UniProt Q62210: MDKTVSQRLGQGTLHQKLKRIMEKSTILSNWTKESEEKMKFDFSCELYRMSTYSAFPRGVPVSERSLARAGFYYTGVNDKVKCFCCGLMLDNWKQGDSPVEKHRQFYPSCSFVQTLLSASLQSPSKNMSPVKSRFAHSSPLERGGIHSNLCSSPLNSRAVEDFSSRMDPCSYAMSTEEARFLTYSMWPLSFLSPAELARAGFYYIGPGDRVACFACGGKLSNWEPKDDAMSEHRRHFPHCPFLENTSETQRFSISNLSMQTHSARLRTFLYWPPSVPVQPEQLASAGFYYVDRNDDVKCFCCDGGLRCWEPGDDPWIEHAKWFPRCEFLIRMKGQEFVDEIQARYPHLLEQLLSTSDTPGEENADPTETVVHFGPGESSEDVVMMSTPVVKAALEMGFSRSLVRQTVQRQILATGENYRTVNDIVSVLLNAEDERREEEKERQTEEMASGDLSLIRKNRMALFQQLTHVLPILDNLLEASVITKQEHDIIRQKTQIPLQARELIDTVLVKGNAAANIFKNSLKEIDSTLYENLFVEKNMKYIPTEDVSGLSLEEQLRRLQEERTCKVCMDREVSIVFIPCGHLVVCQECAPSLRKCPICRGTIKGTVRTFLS

What was measured:
[1] = biological target: CD40 (mouse (endogenous in A20.2J)) (UniProt P27512); assay: co-IP; activated receptor capture: 3x10^7 cells (A20.2J, HOIP-deficient or HOIP-reconstituted) incubated 60 min at room temperature with magnetic protein G beads coated with goat anti-rat IgG and anti-CD40 (1C10), lysed in 1% Triton X100, beads washed, Western blot; in some experiments cells pretreated 6 h with 25 µM SMAC-N7 peptide or DMSO
[2] = biological target: CD40 (mouse (endogenous in A20.2J)) (UniProt P27512); assay: as above; remark: listed apart in the source

binding [1]	binding [2]	Molecule
binds		cIAP1 (from UniProt Q62210 1-612)
	binds	TRAF2 (protein, UniProt P39429 1-501) MAAASVTSPGSLELLQPGFSKTLLGTRLEAKYLCSACKNILRRPFQAQCGHRYCSFCLTSILSSGPQNCAACVYEGLYEEGISILESSSAFPDNAARREVESLPAVCPNDGCTWKGTLKEYESCHEGLCPFLLTECPACKGLVRLSEKEHHTEQECPKRSLSCQHCRAPCSHVDLEVHYEVCPKFPLTCDGCGKKKIPRETFQDHVRACSKCRVLCRFHTVGCSEMVETENLQDHELQRLREHLALLLSSFLEAQASPGTLNQVGPELLQRCQILEQKIATFENIVCVLNREVERVAVTAEACSRQHRLDQDKIEALSNKVQQLERSIGLKDLAMADLEQKVSELEVSTYDGVFIWKISDFTRKRQEAVAGRTPAIFSPAFYTSRYGYKMCLRVYLNGDGTGRGTHLSLFFVVMKGPNDALLQWPFNQKVTLMLLDHNNREHVIDAFRPDVTSSSFQRPVSDMNIASGCPLFCPVSKMEAKNSYVRDDAIFIKAIVDLTGL
	binds	TRAF3 (protein, UniProt Q60803 1-567) MESSKKMDAAGTLQPNPPLKLQPDRGAGSVLVPEQGGYKEKFVKTVEDKYKCEKCRLVLCNPKQTECGHRFCESCMAALLSSSSPKCTACQESIIKDKVFKDNCCKREILALQVYCRNEGRGCAEQLTLGHLLVHLKNECQFEELPCLRADCKEKVLRKDLRDHVEKACKYREATCSHCKSQVPMIKLQKHEDTDCPCVVVSCPHKCSVQTLLRSELSAHLSECVNAPSTCSFKRYGCVFQGTNQQIKAHEASSAVQHVNLLKEWSNSLEKKVSLLQNESVEKNKSIQSLHNQICSFEIEIERQKEMLRNNESKILHLQRVIDSQAEKLKELDKEIRPFRQNWEEADSMKSSVESLQNRVTELESVDKSAGQAARNTGLLESQLSRHDQMLSVHDIRLADMDLRFQVLETASYNGVLIWKIRDYKRRKQEAVMGKTLSLYSQPFYTGYFGYKMCARVYLNGDGMGKGTHLSLFFVIMRGEYDALLPWPFKQKVTLMLMDQGSSRRHLGDAFKPDPNSSSFKKPTGEMNIASGCPVFVAQTVLENGTYIKDDTIFIKVIVDTSDLPDP
